Results are given in words; binding and its absence hold for the method and conditions named. In cells and extracts the contact can be indirect. Some results given as binding are weak or reduced against the parent protein; the word gives no strength. Sequences can lack the tags named with a protein.
Target: T1, Wfs1-mCherry (wolframin fused to mCherry) (UniProt P56695)
T1 sequence: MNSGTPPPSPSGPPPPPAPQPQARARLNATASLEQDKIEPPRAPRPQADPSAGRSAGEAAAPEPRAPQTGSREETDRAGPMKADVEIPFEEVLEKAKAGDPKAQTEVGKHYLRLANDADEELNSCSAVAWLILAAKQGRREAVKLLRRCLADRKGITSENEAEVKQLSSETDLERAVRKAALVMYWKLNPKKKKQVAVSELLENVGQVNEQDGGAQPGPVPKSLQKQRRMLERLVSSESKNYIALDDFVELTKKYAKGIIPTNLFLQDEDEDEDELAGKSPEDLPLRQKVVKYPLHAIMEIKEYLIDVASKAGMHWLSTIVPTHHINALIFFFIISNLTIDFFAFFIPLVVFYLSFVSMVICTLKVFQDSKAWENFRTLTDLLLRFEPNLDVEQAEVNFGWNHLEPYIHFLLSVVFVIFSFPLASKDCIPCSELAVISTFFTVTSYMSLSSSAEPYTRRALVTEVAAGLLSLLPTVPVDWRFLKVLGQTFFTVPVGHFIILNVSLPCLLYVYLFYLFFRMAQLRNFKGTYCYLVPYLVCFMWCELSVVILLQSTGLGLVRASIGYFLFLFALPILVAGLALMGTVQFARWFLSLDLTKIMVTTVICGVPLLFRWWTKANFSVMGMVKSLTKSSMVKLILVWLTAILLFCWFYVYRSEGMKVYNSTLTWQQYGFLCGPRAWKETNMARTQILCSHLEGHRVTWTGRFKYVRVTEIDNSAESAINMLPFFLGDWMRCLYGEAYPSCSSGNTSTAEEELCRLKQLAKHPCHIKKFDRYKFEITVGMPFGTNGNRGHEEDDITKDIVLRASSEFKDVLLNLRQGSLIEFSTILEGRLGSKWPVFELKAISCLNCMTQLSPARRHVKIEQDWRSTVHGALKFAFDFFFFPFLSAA
Experiment: co-IP; HEK-293T cells transiently co-transfected with Wfs1-mCherry and Mct1-V5; lysis in IP buffer (20 mM Tris-HCl pH 7.5, 150 mM NaCl, 1 mM EDTA, 1 mM EGTA, 1% Triton X-100); anti-RFP immunoprecipitation overnight at 4 °C on Dynabeads Protein G, 8 washes; blot for RFP and V5; isotype antibody as negative control

- binding: binds
B1: Mct1-V5 (monocarboxylate transporter isoform 1 with V5 tag) (protein, UniProt P53986 1-493)
chain: MPPAIGGPVGYTPPDGGWGWAVLVGAFISIGFSYAFPKSITVFFKEIEVIFSATTSEVSWISSIMLAVMYAGGPISSILVNKYGSRPVMIAGGCLSGCGLIAASFCNTVQELYLCIGVIGGLGLAFNLNPALTMIGKYFYKKRPLANGLAMAGSPVFLSTLAPLNQAFFDIFDWRGSFLILGGLLLNCCVAGSLMRPIGPEQVKLEKLKSKESLQEAGKSDANTDLIGGSPKGEKLSVFQTINKFLDLSLFTHRGFLLYLSGNVVMFFGLFTPLVFLSSYGKSKDFSSEKSAFLLSILAFVDMVARPSMGLAANTKWIRPRIQYFFAASVVANGVCHLLAPLSTTYVGFCVYAGVFGFAFGWLSSVLFETLMDLIGPQRFSSAVGLVTIVECCPVLLGPPLLGRLNDMYGDYKYTYWACGVILIIAGIYLFIGMGINYRLLAKEQKAEEKQKREGKEDEASTDVDEKPKETMKAAQSPQQHSSGDPTEEESPV

From article PMC9891717
